{"source": "PubChem BioAssay AID1224826 (NIAID, 2016)", "test": "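Genes that change LPS-induced Tnf promoter activity in mouse macrophages when knocked down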 (primary screen)", "cells": "RAW264.7 G9 macrophages from mouse bearing reporters for p65 (GFP) and the Tnf promoter (mCherry)", "reagents": "siRNA pool against mouse genes, 100 nM", "time to read-out": "16 h of LPS stimulation, after 2 days of siRNA transfection", "treatment": "bacterial lipopolysaccharide (Salmonella minnesota R595), 10 ng/ml", "detection": "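Nuclear mCherry signal of the Tnf promoter reporter measured by imaging after background removal, scaled to each plate median and turned into robust z-scores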", "scale": "Tnf reporter robust z-score: higher = stronger Tnf promoter reporter signal after LPS", "rule for the call": "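Called active when robust z-score is at most -1.3, matching the median of the Tlr4 knock-down control, or over 3; control wells and wells with under 50 cells never active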", "calls": "active = Tnf reporter clearly lowered or raised; inactive = no clear change in Tnf reporter", "note": "This is a random part of about 17,000 reagents. About 1,110 of all reagents (6.6%) count as active. 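Active means lowered or raised reporter signal; replicate intensities are raw and not normalised per plate.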 Unmarked entries are inactive. Further read-outs or replicates are left out here."}
The opening 2 entries, to show the layout:
{"gene knocked down": "9230109A22Rik", "PubChem SID": "SID315478257", "Tnf reporter robust z-score": 2.9, "fewer than 50 cells in well": "enough cells in well"}
{"gene knocked down": "Vapb", "PubChem SID": "SID315471571", "Tnf reporter robust z-score": "3.46 (active)", "fewer than 50 cells in well": "enough cells in well"}

The listing, from the start:
{"gene knocked down": "9230109A22Rik", "PubChem SID": "SID315478257", "Tnf reporter robust z-score": 2.9, "fewer than 50 cells in well": "enough cells in well"}
{"gene knocked down": "Vapb", "PubChem SID": "SID315471571", "Tnf reporter robust z-score": "3.46 (active)", "fewer than 50 cells in well": "enough cells in well"}
{"gene knocked down": "Slc35a5", "PubChem SID": "SID315474845", "fewer than 50 cells in well": "fewer than 50 cells per well; well left out of calls"}
{"gene knocked down": "Nlrp4f", "PubChem SID": "SID315476112", "Tnf reporter robust z-score": 0.63, "fewer than 50 cells in well": "enough cells in well"}
{"gene knocked down": "Shmt2", "PubChem SID": "SID315476671", "Tnf reporter robust z-score": 0.37, "fewer than 50 cells in well": "enough cells in well"}
{"gene knocked down": "Il1rn", "PubChem SID": "SID315467448", "Tnf reporter robust z-score": -0.9, "fewer than 50 cells in well": "enough cells in well"}
{"gene knocked down": "Rnf31", "PubChem SID": "SID315480795", "Tnf reporter robust z-score": 1.63, "fewer than 50 cells in well": "enough cells in well"}
{"gene knocked down": "Or2h1", "PubChem SID": "SID315480149", "Tnf reporter robust z-score": "-1.67 (active)", "fewer than 50 cells in well": "enough cells in well"}
{"gene knocked down": "Sarm1", "PubChem SID": "SID315479370", "Tnf reporter robust z-score": 0.87, "fewer than 50 cells in well": "enough cells in well"}
{"gene knocked down": "Rp2", "PubChem SID": "SID315469002", "Tnf reporter robust z-score": 2.07, "fewer than 50 cells in well": "enough cells in well"}
{"gene knocked down": "Tdpoz5", "PubChem SID": "SID315481890", "Tnf reporter robust z-score": 1.29, "fewer than 50 cells in well": "enough cells in well"}
{"gene knocked down": "Depdc5", "PubChem SID": "SID315481000", "Tnf reporter robust z-score": -0.53, "fewer than 50 cells in well": "enough cells in well"}
{"gene knocked down": "Napsa", "PubChem SID": "SID315467603", "Tnf reporter robust z-score": -0.25, "fewer than 50 cells in well": "enough cells in well"}
{"gene knocked down": "Mrpl23", "PubChem SID": "SID315469013", "Tnf reporter robust z-score": 1.4, "fewer than 50 cells in well": "enough cells in well"}
{"gene knocked down": "Kat14", "PubChem SID": "SID315478649", "Tnf reporter robust z-score": 0.14, "fewer than 50 cells in well": "enough cells in well"}
{"gene knocked down": "Or4p22", "PubChem SID": "SID315480464", "Tnf reporter robust z-score": 0.66, "fewer than 50 cells in well": "enough cells in well"}
{"gene knocked down": "Or52ac1", "PubChem SID": "SID315480461", "Tnf reporter robust z-score": "5.56 (active)", "fewer than 50 cells in well": "enough cells in well"}
{"gene knocked down": "Xrcc4", "PubChem SID": "SID315476701", "Tnf reporter robust z-score": 0.22, "fewer than 50 cells in well": "enough cells in well"}
{"gene knocked down": "Pcnx3", "PubChem SID": "SID315476440", "Tnf reporter robust z-score": -0.85, "fewer than 50 cells in well": "enough cells in well"}
{"gene knocked down": "Trpc2", "PubChem SID": "SID315469836", "Tnf reporter robust z-score": -0.11, "fewer than 50 cells in well": "enough cells in well"}
{"gene knocked down": "Tcf19", "PubChem SID": "SID315476563", "Tnf reporter robust z-score": -0.75, "fewer than 50 cells in well": "enough cells in well"}
{"gene knocked down": "Garin1b", "PubChem SID": "SID315481584", "Tnf reporter robust z-score": 0.08, "fewer than 50 cells in well": "enough cells in well"}
{"gene knocked down": "Tor1b", "PubChem SID": "SID315470769", "Tnf reporter robust z-score": 0, "fewer than 50 cells in well": "enough cells in well"}
{"gene knocked down": "Hnrnpc", "PubChem SID": "SID315467242", "Tnf reporter robust z-score": 1.47, "fewer than 50 cells in well": "enough cells in well"}
{"gene knocked down": "Kics2", "PubChem SID": "SID315480938", "Tnf reporter robust z-score": -0.19, "fewer than 50 cells in well": "enough cells in well"}
{"gene knocked down": "Ms4a4c", "PubChem SID": "SID315472094", "Tnf reporter robust z-score": -0.05, "fewer than 50 cells in well": "enough cells in well"}
{"gene knocked down": "Tbx5", "PubChem SID": "SID315469598", "Tnf reporter robust z-score": -0.16, "fewer than 50 cells in well": "enough cells in well"}
